No constants are given. Whether binding was seen depends on the method and setting. Some results given as binding are weak or reduced against the parent protein; the word gives no strength.
Target: Aurora kinase B kinase domain (truncation not stated), phosphorylated (human) (UniProt Q96GD4)
Test: co-expression and co-purification; bi-cistronic co-expression in E. coli; Ni-Sepharose by the His6 tag of the Aurora kinase (INCENP untagged), TEV, second Ni-Sepharose, S75 gel filtration in 20 mM HEPES pH 7.5, 500 mM NaCl, 5% glycerol, 0.5 mM TCEP; identities confirmed by ESI-MS

Sequences of proteins named here, by UniProt entry; tags and fusion partners are left off. A change or cut given only in a name is not applied to a line headed by its entry. A line that says so, or that is headed by a name, gives the form on record, which may keep a tag or linker. Residues count along the entry.
Aurora kinase B kinase domain (truncation not stated), phosphorylated (Q96GD4, form named): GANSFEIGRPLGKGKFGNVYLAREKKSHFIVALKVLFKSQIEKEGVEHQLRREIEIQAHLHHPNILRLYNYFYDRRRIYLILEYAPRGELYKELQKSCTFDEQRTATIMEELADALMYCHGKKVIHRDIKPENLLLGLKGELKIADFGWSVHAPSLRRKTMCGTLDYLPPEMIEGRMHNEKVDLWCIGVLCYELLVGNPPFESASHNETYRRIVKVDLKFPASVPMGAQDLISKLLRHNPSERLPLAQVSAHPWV
INCENP IN-box (residues 835–903) W897A (Q9NQS7-1, form named): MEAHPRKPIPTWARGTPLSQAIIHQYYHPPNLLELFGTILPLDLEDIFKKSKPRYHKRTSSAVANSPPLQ
INCENP IN-box (residues 835–903) S894A (Q9NQS7-1, form named): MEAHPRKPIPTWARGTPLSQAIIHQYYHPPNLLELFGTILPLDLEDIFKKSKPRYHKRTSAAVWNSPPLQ
INCENP IN-box (residues 835–903) S893A (Q9NQS7-1, form named): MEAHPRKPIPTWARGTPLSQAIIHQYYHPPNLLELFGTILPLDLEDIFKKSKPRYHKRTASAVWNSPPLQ

binding	Substance
binds	INCENP IN-box (residues 835–903) W897A (from UniProt Q9NQS7-1 835-903) (domain or fragment)
binds	INCENP IN-box (residues 835–903) S894A (from UniProt Q9NQS7-1 835-903) (domain or fragment)
binds	INCENP IN-box (residues 835–903) S893A (from UniProt Q9NQS7-1 835-903) (domain or fragment)
